For assay [1], the target named is T1, Pumilio RD3 (amino acids 847-1090) fused to the Gal4 DNA-binding domain (bait) (Drosophila melanogaster) (UniProt P25822).
T1 sequence: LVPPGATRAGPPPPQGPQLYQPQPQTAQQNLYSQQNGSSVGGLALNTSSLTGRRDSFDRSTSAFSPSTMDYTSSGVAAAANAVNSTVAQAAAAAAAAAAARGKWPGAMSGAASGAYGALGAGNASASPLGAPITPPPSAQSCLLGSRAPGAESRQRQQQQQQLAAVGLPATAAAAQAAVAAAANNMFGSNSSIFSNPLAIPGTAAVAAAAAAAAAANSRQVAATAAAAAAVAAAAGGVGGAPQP
Description: two-hybrid; yeast two-hybrid in S. cerevisiae Y2H Gold; baits on Gal4 DNA-binding domain (pGBKT7), preys on Gal4 activation domain (pGADT7); growth on -Leu -Trp -His -Ade plates with X-alpha-gal (ADE2, HIS3, MEL1 reporters), 30 °C.

Chains of the proteins cited; added tags and fusions are not shown. Residues count along the entry.
UniProt Q7K126, residues 522-844: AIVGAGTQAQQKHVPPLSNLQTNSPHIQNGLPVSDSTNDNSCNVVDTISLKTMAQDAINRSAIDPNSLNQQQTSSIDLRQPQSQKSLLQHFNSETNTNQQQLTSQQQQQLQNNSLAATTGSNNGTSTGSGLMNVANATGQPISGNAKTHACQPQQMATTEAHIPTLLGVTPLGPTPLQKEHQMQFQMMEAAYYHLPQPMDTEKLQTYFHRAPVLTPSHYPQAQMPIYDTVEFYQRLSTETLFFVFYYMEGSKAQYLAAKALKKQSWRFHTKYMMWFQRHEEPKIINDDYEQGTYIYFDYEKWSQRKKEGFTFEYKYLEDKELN

In assay [2] the target is T2, Pumilio RD3 F1033A + F1040A fused to the Gal4 DNA-binding domain (bait) (Drosophila melanogaster) (UniProt P25822).
T2 sequence: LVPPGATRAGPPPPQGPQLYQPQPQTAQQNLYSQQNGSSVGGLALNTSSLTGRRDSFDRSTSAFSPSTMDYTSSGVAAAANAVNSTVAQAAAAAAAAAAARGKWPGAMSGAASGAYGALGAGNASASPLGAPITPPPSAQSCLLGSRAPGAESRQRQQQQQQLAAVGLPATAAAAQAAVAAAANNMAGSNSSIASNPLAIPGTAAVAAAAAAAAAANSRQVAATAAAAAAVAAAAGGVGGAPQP
Described as above.

Assay [3] has as its target T3, Pumilio RD3 F1033A fused to the Gal4 DNA-binding domain (bait) (Drosophila melanogaster) (UniProt P25822).
T3 sequence: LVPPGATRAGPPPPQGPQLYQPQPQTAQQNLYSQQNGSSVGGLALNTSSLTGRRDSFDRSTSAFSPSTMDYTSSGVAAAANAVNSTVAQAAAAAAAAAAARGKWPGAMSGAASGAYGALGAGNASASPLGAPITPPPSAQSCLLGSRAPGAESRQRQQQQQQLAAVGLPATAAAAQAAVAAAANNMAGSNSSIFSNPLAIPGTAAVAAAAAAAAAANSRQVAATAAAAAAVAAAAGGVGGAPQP
The assay is described as above.

Assay [4] has as its target T4, Pumilio RD3 F1040A fused to the Gal4 DNA-binding domain (bait) (Drosophila melanogaster) (UniProt P25822).
T4 sequence: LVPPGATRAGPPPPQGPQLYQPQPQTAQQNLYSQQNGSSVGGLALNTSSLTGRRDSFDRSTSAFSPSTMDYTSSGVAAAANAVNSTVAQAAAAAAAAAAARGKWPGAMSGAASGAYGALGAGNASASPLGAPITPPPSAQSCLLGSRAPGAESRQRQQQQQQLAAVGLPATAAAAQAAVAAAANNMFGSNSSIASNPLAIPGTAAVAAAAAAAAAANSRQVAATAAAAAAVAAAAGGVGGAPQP
Described as above.

Assay [5] deals with Not1-3×FLAG, endogenous Drosophila Not1 with a C-terminal 3×FLAG tag (Drosophila (endogenous in DL1)) (UniProt A8DY81). Description: co-IP; anti-FLAG M2 beads on lysate of DL1 cells with endogenous Not1-3×FLAG, transfected with V5-tagged prey; RNase One and RNase A; 50 mM Tris–HCl pH 8.0, 500 mM NaCl, 1 mM EDTA, 0.2% Triton X-100; 4 °C, 3 h; anti-V5 blot.
The target in assay [6] is T5, Not2-3×FLAG (Drosophila) (UniProt Q94547).
T5 sequence: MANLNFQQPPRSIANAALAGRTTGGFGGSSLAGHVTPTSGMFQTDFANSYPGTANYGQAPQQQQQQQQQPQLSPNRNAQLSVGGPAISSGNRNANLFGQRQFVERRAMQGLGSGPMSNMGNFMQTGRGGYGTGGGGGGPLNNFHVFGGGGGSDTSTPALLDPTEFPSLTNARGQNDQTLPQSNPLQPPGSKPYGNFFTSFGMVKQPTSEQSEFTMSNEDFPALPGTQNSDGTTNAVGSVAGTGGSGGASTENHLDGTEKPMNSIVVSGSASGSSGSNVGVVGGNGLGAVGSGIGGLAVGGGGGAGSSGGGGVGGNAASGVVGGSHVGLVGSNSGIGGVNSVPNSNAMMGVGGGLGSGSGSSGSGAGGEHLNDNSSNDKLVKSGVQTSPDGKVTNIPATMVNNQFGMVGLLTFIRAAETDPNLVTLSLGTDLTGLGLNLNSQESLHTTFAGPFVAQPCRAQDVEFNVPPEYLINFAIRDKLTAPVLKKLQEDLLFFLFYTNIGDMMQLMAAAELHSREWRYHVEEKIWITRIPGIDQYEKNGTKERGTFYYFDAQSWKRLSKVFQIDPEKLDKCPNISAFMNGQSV
Description: co-IP; anti-FLAG M2 beads on lysate of Dmel-2 cells cotransfected with Not2-3×FLAG bait and V5-tagged prey; RNase One and RNase A; 50 mM Tris–HCl pH 8.0, 500 mM NaCl, 1 mM EDTA, 0.2% Triton X-100; 4 °C, 3 h; anti-V5 blot.

Experimental findings from article PMC9418443 are described below.

No constants are given. Whether binding was seen depends on the method and setting. For some assays here: In cells and extracts the contact can be indirect. Some entries that bind do so weakly or less than the wild type. Sequences can lack the tags named with a protein.

Regarding “Not3-C, C-terminal region of Drosophila Not3 (amino acids 522–844), fused to the Gal4 activation domain (prey) (from UniProt Q7K126 522-844) (domain or fragment)”, the binding result in assay [1] and in assay [2] was “binds” each time.

B1: Not2 minimal region (amino acids 465–585), fused to the Gal4 activation domain (prey) (domain or fragment, UniProt Q94547 465-585)
chain: NVPPEYLINFAIRDKLTAPVLKKLQEDLLFFLFYTNIGDMMQLMAAAELHSREWRYHVEEKIWITRIPGIDQYEKNGTKERGTFYYFDAQSWKRLSKVFQIDPEKLDKCPNISAFMNGQSV
On to B1, for which, in assay [1], the binding entry is given as “binds”.

B2: Pumilio-binding region in Not1 (amino acids 908–995), fused to the Gal4 activation domain (prey) (domain or fragment, UniProt A8DY81 908-995)
chain: VSKEVEDEVNSYFQRIYNHQPNPTLSIDEVLDILQRFKESSNRREQEVFLCMLRNLFEEYRFFCQYPEKELQITAQLFGGIIDRNLVP
B2: the binding entry in assay [1] is reported as “binds”.

B3: Not2 subunit of the Drosophila CCR4–NOT complex, fused to the Gal4 activation domain (prey) (protein, UniProt Q94547 1-585)
chain: MANLNFQQPPRSIANAALAGRTTGGFGGSSLAGHVTPTSGMFQTDFANSYPGTANYGQAPQQQQQQQQQPQLSPNRNAQLSVGGPAISSGNRNANLFGQRQFVERRAMQGLGSGPMSNMGNFMQTGRGGYGTGGGGGGPLNNFHVFGGGGGSDTSTPALLDPTEFPSLTNARGQNDQTLPQSNPLQPPGSKPYGNFFTSFGMVKQPTSEQSEFTMSNEDFPALPGTQNSDGTTNAVGSVAGTGGSGGASTENHLDGTEKPMNSIVVSGSASGSSGSNVGVVGGNGLGAVGSGIGGLAVGGGGGAGSSGGGGVGGNAASGVVGGSHVGLVGSNSGIGGVNSVPNSNAMMGVGGGLGSGSGSSGSGAGGEHLNDNSSNDKLVKSGVQTSPDGKVTNIPATMVNNQFGMVGLLTFIRAAETDPNLVTLSLGTDLTGLGLNLNSQESLHTTFAGPFVAQPCRAQDVEFNVPPEYLINFAIRDKLTAPVLKKLQEDLLFFLFYTNIGDMMQLMAAAELHSREWRYHVEEKIWITRIPGIDQYEKNGTKERGTFYYFDAQSWKRLSKVFQIDPEKLDKCPNISAFMNGQSV
Regarding B3, the binding result in assay [3], in assay [1], in assay [4] and in assay [2] was “binds” in each case.

B4: MS2-RD3-V5, wildtype Pumilio RD3 fused to the MS2 coat protein RNA-binding domain with C-terminal V5 tag (domain or fragment, UniProt P25822 847-1090)
chain: LVPPGATRAGPPPPQGPQLYQPQPQTAQQNLYSQQNGSSVGGLALNTSSLTGRRDSFDRSTSAFSPSTMDYTSSGVAAAANAVNSTVAQAAAAAAAAAAARGKWPGAMSGAASGAYGALGAGNASASPLGAPITPPPSAQSCLLGSRAPGAESRQRQQQQQQLAAVGLPATAAAAQAAVAAAANNMFGSNSSIFSNPLAIPGTAAVAAAAAAAAAANSRQVAATAAAAAAVAAAAGGVGGAPQP
As for B4, the binding entry in assay [5] and in assay [6] was “binds” in each case.

B5: MS2-RD3-V5 F1033A + F1040A mutant (domain or fragment, UniProt P25822 847-1090)
chain: LVPPGATRAGPPPPQGPQLYQPQPQTAQQNLYSQQNGSSVGGLALNTSSLTGRRDSFDRSTSAFSPSTMDYTSSGVAAAANAVNSTVAQAAAAAAAAAAARGKWPGAMSGAASGAYGALGAGNASASPLGAPITPPPSAQSCLLGSRAPGAESRQRQQQQQQLAAVGLPATAAAAQAAVAAAANNMAGSNSSIASNPLAIPGTAAVAAAAAAAAAANSRQVAATAAAAAAVAAAAGGVGGAPQP
For the molecule B5, in assay [6], the binding entry is “binds”.
